Measurements taken from PMC8366450.
No constants are given. Whether binding was seen depends on the method and setting. Some entries that bind do so weakly or less than the wild type.

The chains behind the UniProt entries cited, without tags or fusion partners.
UniProt O43670: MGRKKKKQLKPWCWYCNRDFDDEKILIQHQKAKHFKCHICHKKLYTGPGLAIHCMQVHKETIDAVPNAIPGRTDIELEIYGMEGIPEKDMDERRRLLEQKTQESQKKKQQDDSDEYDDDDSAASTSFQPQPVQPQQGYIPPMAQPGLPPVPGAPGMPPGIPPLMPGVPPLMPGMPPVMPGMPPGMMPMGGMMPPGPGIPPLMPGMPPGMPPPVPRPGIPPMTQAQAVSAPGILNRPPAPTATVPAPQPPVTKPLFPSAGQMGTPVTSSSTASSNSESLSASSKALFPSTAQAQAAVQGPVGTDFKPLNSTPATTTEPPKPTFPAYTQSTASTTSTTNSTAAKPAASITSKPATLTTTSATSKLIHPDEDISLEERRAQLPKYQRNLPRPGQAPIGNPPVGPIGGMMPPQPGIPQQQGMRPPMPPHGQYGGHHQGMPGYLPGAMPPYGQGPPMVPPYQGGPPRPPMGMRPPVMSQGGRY

Key:
[1] = target: human recombinant CPPED1 with N-terminal His-V5 dual tag (human) (UniProt Q9BRF8); assay: SEC-MALS; Superdex 200 HR 5/150 GL size-exclusion column with static light scattering (SLS) instrument (Wyatt Technology); purified recombinant CPPED1; both purified
[2] = target: T1, Apoptosis inhibitor 5 (human) (UniProt Q9BZZ5); assay: peptide or protein array; HuProt v3.1 human proteome microarray; >20 000 human recombinant proteins immobilised on the array; purified His-V5-CPPED1 applied; both purified
T1 sequence: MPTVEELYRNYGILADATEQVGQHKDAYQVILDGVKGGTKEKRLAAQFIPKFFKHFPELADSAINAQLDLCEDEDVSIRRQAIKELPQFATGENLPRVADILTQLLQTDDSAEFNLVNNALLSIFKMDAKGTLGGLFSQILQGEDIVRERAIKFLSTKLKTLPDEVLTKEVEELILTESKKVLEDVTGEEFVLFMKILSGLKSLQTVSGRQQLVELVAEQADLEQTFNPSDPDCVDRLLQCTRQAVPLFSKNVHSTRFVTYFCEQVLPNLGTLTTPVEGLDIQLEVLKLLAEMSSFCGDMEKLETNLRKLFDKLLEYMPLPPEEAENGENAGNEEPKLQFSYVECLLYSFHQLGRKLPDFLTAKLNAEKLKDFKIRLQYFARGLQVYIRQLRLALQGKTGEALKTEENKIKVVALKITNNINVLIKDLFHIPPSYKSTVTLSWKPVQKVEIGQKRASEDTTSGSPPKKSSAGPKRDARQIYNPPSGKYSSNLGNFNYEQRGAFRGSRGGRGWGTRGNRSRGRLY

[3] = target: Zinc finger protein 207 (human) (UniProt O43670); assay: as above

binding [1]: no binding | binding [2]: binds | binding [3]: binds
Substance: human recombinant CPPED1 with N-terminal His-V5 dual tag (from UniProt Q9BRF8 1-314) (enzyme)
